Laboratory results published in the supplement of paper PMC6331611.
± gives the standard deviation of the averaged measurements. Whole data set: some 1,600 compounds, median “normalized growth (OD600, IQM-normalized) in LPM” near 1, cut for the lowest 2% near 0.014. The list shows a part of the results.

system: Salmonella enterica serovar Typhimurium SL1344; experiment: normalized growth (OD600, IQM-normalized) in LPM (fraction of plate interquartile mean); higher = more bacterial growth (less inhibition); conditions: LPM pH 5.8; 10 µM; 16 h

Structure (SMILES)	normalized growth
OCc1ccccc1	1.04 ± 0.012
CNC(=C[N+](=O)[O-])NCCSCc1csc(CN(C)C)n1	1.15 ± 0.28
CS(=O)(=O)Nc1ccc([N+](=O)[O-])cc1Oc1ccccc1	1.08 ± 0.035
CCn1cc(C(=O)O)c(=O)c2cc(F)c(N3CCNC(C)C3)c(F)c21 (stereo not given)	0.0416 ± 0.00075
C[C@]12C=CC(=O)C=C1CC[C@@H]1[C@@H]2C(=O)C[C@@]2(C)[C@H]1CC[C@]2(O)C(=O)CO	1.04 ± 0.055
CCOC(=O)CCC(=O)O[C@H]1[C@H](O[C@@H]2[C@@H](C)[C@H](O[C@H]3C[C@@](C)(OC)[C@@H](O)[C@H](C)O3)[C@@H](C)C(=O)O[C@H](CC)[C@@](C)(O)[C@H](O)[C@@H](C)C(=O)[C@H](C)C[C@@]2(C)O)O[C@H](C)C[C@@H]1N(C)C	1.14 ± 0.045
NS(=O)(=O)c1ccc(C(=O)O)cc1	0.995 ± 0.082
CCOc1ccccc1C(N)=O	1.09 ± 0.023
CO[C@H]1C[C@@H]2CC[C@@H](C)[C@@](O)(O2)C(=O)C(=O)N2CCCC[C@H]2C(=O)O[C@H]([C@H](C)C[C@@H]2CC[C@@H](O)[C@H](OC)C2)CC(=O)[C@H](C)/C=C(\C)[C@@H](O)[C@@H](OC)C(=O)[C@H](C)C[C@H](C)/C=C/C=C/C=C/1C	0.964 ± 0.048
CC(=O)N1CCN(c2ccc(OCC3COC(Cn4ccnc4)(c4ccc(Cl)cc4Cl)O3)cc2)CC1 (stereo not given)	1 ± 0.049
CC(C)NCC(O)c1ccc(NS(C)(=O)=O)cc1 (stereo not given)	0.992 ± 0.044
C#C[C@]1(O)CC[C@H]2[C@@H]3CCc4cc(OC)ccc4[C@H]3CC[C@@]21C	0.923 ± 0.032
O=C(O)P(=O)(O)O	0.953 ± 0.027
CCCCCCCCCCCCCCCC[N+](C)(C)CCN(Cc1ccc(OC)cc1)c1ncccn1	1.11 ± 0.022
Cc1nc(C)c(Cl)c(O)c1Cl	1.12 ± 0.079
CCN(CC)CCCC(C)Nc1c2ccc(Cl)cc2nc2ccc(OC)cc12 (stereo not given)	1.06 ± 0.024
CNC(=C[N+](=O)[O-])NCCSCc1ccc(CN(C)C)o1	0.873 ± 0.062
COC(=O)[C@H]1[C@H]2C[C@@H]3c4[nH]c5cc(OC)ccc5c4CCN3C[C@H]2C[C@@H](OC(=O)c2cc(OC)c(OC)c(OC)c2)[C@@H]1OC	0.967 ± 0.021
CCCc1nc(C)c2c(O)nc(-c3cc(S(=O)(=O)N4CCN(CC)CC4)ccc3OCC)nn12	1.02 ± 0.053
N[C@H](Cc1ccccc1)C(=O)O	1.05 ± 0.055
CNC[C@H](O)c1cccc(O)c1	0.926 ± 0.14
CCN(CC)CCNC(=O)c1ccc(NC(C)=O)cc1	0.921 ± 0.075
CN1C(=O)CC(C)(c2ccccc2)C1=O (stereo not given)	0.912 ± 0.037
CC(C)(CO)[C@@H](O)C(=O)NCCCO	0.93 ± 0.017
CCOC(=O)[C@H](CCc1ccccc1)N[C@@H](C)C(=O)N1[C@H](C(=O)O)C[C@H]2CCCC[C@@H]21	1.02 ± 0.013

Part of the list above, bar-delimited:
Structure (SMILES) | normalized growth
CCN(CC)CCNC(=O)c1ccc(NC(C)=O)cc1 | 0.921 ± 0.075
CN1C(=O)CC(C)(c2ccccc2)C1=O (stereo not given) | 0.912 ± 0.037
